Assay results as given in patent US11371077B2, “High throughput cell-based screening for aptamers” (MeiraGTx UK II Limited, priority 2016, dated 2022).

Tests used:
add-G6 riboswitch = experiment: cells; type: cell-based; details: Homo sapiens, HEK293, Prestwick library compounds at 100 μM, HEK 293, read-out: Fold Induction of luciferase activity
Source text: (§1) A truncated human beta-globin intron sequence was synthesized and inserted in the coding sequence of a firefly luciferase gene. A mutant human DHFR exon 2 was synthesized and inserted in the middle of this truncated beta-globin intron sequence using Golden gate cloning strategy. Aptamers including xpt-G/A^1, ydhl-G/A^2, yxj^3, add^4, gdg6-G/A^5 (citations for the aptamers are incorporated herein by reference) were synthesized as oligonucleotides (“oligos”) with 4 nucleotide overhang at the 5′ end that are complementary to two different BsaI sites individually (IDT), annealed and ligated to BsaI-digested mDHFR-Luci-acceptor vector.
3.5×10^4 HEK 293 cells were plated in a 96-well flat bottom plate the day before transfection. Plasmid DNA (500 ng) was added to a tube or a 96-well U-bottom plate. […] Then, 50 μL of this diluted transfection reagent was added to the DNA, mixed, and incubated at RT for 20 min. Finally, 7 μL of this solution was added to a well of cells in the 96-well plate.
24 hours after media change, plates were removed from the incubator, and equilibrated to RT for several minutes on a lab bench, then aspirated. Glo-lysis buffer (Promega, 100 μL, RT) was added, and the plates maintained at RT for at least 5 minutes. […] Following a 5 min incubation at RT, luminescence was measured using a Tecan machine with 500 mSec read time. […]

xpt-G17 riboswitch = experiment: Luciferase reporter assay, xpt-G17 riboswitch, transfected HEK 293 cells; type: cell-based; details: Homo sapiens, HEK293, Prestwick library compounds at 100 μM, preliminary screen
Source text: as §1
3.5×10^4 HEK 293 cells were plated in a 96-well flat bottom plate the day before transfection. Plasmid DNA (500 ng) was added to a tube or a 96-well U-bottom plate. […]
24 hours after media change, plates were removed from the incubator, and equilibrated to RT for several minutes on a lab bench, then aspirated. […] Following a 5 min incubation at RT, luminescence was measured using a Tecan machine with 500 mSec read time. The luciferase activity was expressed as mean relative light unit (RLU)±S.D., and fold induction was calculated as the luciferase activity obtained with guanine treatment divided by luciferase activity obtained without guanine treatment.

C(=C\c1ccccc1)/CN1CCN(C(c2ccccc2)c2ccccc2)CC1 [Cinnarizine]
fold induction at 100 µM (add-G6 riboswitch): 3.6
fold induction at 100 µM (xpt-G17 riboswitch): 3.5
